Earlier results in patent US9089605B2, “Quinone derivatives, pharmaceutical compositions, and uses thereof” (Indiana University Research and Technology Corporation, priority 2007, dated 2015).
Some results were stated once for a whole list of compounds, not compound by compound.

By UniProt entry, the sequences of proteins in these tests, tags left out. Residues count along the entry.
UniProt P02701, 25-152, species assumed: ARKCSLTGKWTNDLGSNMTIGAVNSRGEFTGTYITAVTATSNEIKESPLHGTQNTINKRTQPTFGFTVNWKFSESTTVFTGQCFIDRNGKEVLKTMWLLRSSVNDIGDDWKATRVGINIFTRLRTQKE

Target: avidin (Gallus gallus, UniProt P02701)
Settings: cited from earlier work

SMILES: O=C(O)CCCC[C@H]1[C@H]2NC(=O)N[C@H]2CS1(=O)=O [Compound 89, 5-((1R,5S,6S)-3,7,7-trioxo-7-thia-2,4-diazabicyclo[3.3.0]oct-6-yl)pentanoic acid]
- avidin affinity relative to the parent sulfide: 30-40%
